Assay results from publication PMC11066878.
No constants are given. Whether binding was seen depends on the method and setting. In cells and extracts the contact can be indirect. Some results given as binding are weak or reduced against the parent protein; the word gives no strength.

Chains of the proteins cited; added tags and fusions are not shown. Lines headed by an entry give the natural chain unless they say otherwise; changes in a name come on top. Residues count along the entry.
UniProt P25694: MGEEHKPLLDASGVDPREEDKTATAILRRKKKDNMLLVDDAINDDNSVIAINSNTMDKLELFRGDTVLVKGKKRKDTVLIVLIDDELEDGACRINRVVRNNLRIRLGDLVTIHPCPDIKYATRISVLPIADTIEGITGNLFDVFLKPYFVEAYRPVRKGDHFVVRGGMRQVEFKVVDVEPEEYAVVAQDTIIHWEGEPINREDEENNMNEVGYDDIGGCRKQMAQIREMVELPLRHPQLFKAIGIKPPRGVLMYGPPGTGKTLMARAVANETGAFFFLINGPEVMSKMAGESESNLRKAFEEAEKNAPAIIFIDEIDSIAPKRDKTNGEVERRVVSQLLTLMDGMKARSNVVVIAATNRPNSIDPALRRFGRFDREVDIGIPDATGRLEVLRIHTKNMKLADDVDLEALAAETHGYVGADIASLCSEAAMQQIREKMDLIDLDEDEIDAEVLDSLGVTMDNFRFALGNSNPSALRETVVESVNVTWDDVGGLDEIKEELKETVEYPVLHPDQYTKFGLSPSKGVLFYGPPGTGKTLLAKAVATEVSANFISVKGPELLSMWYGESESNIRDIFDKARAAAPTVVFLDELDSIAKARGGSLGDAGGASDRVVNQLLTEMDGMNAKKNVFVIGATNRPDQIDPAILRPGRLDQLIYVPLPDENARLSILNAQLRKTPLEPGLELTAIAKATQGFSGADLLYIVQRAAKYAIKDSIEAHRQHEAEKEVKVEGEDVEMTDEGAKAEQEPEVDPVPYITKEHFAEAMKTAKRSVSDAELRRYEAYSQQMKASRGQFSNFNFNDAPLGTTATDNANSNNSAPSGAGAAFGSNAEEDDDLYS
Cdc48^ΔHbYX: residues 1-832 of P25694

What was measured:
[1] = molecular target: Cdc48 ATPase (yeast (endogenous in strains isogenic to BY4741 or FY251)) (UniProt P25694); assay: co-IP; lysates of WT and Cdc48^ΔHbYX cells solubilised with 1% DMNG, α-Cdc48 antibody 2 h, Protein A magnetic beads, blots for cofactors
[2] = molecular target: Cdc48^ΔHbYX (yeast) (UniProt P25694); assay: as above

binding [1]: binds
binding [2]: binds
B1: Ufd2 (enzyme, UniProt P54860 1-961)
chain: MTAIEDILQITTDPSDTRGYSLLKSEEVPQGSTLGVDFIDTLLLYQLTENEKLDKPFEYLNDCFRRNQQQKRITKNKPNAESLHSTFQEIDRLVIGYGVVALQIENFCMNGAFINYITGIVSNVNSYTDFLSQIIQRAILEGTALDLLNAVFPTLLEYCNKHVSHFDLNESVIYNNVLTIFELFVTFKPIAEIFTKIDGFFADYSCKPQDFERKTILGPILSLSPIEAAVAIRNYGDNLLRSKQQTAMIHESLQAEHKVVIDRLFFIVDKLVRGSLNSRTDMISYFAHIANKNHLRRADHPPFKELSSNGFMSNITLLLVRFSQPFLDISYKKIDKIDANYFNNPSLFIDLSGETRLNSDFKEADAFYDKNRKTADSKPNFISDCFFLTLTYLHYGLGGTLSFEEKMGSEIKALKEEIEKVKKIAANHDVFARFITAQLSKMEKALKTTESLRFALQGFFAHRSLQLEVFDFICGASTFLIRVVDPEHEFPFKQIKLPLIPDQIGVENVDNADFLRAHAPVPFKYYPEFVVEGPVNYSLYISKYQTSPIFRNPRLGSFVEFTTMVLRCPELVSNPHLKGKLVQLLSVGAMPLTDNSPGFMMDIFEHDELVNKNLLYALLDFYVIVEKTGSSSQFYDKFNSRYSISIILEELYYKIPSYKNQLIWQSQNNADFFVRFVARMLNDLTFLLDEGLSNLAEVHNIQNELDNRARGAPPTREEEDKELQTRLASASRQAKSSCGLADKSMKLFEIYSKDIPAAFVTPEIVYRLASMLNYNLESLVGPKCGELKVKDPQSYSFNPKDLLKALTTVYINLSEQSEFISAVAKDERSFNRNLFVRAVDILGRKTGLASPEFIEKLLNFANKAEEQRKADEEEDLEYGDVPDEFLDPLMYTIMKDPVILPASKMNIDRSTIKAHLLSDSTDPFNRMPLKLEDVTPNEELRQKILCFKKQKKEEAKHKASE
